Results are given in words; binding and its absence hold for the method and conditions named. In cells and extracts the contact can be indirect. A yes stands for co-enrichment or nearness to the bait. Other partners may have been found. For some of these results: A no says only that the protein was not detected with the bait.
How the values were obtained:
[1] = target: optineurin (human (endogenous in HFF)) (UniProt Q96CV9); test: affinity purification with mass spectrometry
[2] = target: sequestome 1 (SQSTM1/p62) (human (endogenous in HFF)) (UniProt Q13501); test: affinity purification with mass spectrometry

Amino acid sequences for entries named in this document (tags omitted).
UniProt Q96CV9: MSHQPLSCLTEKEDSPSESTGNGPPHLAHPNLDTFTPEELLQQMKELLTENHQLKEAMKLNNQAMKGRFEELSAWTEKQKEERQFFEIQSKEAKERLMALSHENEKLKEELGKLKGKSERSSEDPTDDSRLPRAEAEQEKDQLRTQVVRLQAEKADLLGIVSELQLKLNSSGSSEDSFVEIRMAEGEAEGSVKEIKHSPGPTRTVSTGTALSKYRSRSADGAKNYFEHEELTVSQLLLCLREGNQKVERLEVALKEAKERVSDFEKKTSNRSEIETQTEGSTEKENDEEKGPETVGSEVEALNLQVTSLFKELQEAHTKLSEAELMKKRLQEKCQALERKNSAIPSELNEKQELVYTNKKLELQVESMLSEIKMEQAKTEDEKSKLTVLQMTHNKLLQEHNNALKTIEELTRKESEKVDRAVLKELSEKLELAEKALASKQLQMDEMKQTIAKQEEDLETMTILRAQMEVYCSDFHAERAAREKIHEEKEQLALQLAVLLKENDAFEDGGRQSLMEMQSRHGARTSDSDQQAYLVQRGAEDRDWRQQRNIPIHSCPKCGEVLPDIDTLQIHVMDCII
UniProt P16791: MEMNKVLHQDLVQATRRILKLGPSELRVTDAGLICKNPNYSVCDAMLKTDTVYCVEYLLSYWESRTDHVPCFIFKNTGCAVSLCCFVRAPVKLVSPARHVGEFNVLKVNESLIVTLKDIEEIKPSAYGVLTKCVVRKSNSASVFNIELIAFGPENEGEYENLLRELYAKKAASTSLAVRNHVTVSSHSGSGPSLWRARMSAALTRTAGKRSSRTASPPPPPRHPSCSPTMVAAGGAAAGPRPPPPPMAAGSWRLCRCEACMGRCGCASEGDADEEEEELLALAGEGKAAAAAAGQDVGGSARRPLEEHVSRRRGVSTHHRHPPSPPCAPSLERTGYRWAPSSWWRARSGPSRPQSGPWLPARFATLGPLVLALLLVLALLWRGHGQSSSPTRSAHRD
UniProt P16788: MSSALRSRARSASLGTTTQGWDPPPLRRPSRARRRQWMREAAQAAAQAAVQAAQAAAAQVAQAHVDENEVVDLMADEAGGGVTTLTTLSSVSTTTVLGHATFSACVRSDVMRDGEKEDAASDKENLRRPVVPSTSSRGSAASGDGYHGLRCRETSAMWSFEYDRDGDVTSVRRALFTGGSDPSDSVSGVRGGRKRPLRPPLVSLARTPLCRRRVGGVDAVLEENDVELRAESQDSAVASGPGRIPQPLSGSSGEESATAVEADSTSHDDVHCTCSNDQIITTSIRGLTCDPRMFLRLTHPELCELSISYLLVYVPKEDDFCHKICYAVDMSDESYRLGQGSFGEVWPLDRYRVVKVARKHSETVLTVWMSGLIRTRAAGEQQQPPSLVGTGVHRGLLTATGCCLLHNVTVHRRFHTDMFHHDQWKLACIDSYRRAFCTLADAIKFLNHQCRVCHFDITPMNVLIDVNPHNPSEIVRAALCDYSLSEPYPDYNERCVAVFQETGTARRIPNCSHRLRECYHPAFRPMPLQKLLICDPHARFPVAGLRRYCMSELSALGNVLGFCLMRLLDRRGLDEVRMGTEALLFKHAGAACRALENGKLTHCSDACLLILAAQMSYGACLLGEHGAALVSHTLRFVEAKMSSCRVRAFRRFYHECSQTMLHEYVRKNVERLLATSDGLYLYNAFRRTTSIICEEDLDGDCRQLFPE
UniProt P16790: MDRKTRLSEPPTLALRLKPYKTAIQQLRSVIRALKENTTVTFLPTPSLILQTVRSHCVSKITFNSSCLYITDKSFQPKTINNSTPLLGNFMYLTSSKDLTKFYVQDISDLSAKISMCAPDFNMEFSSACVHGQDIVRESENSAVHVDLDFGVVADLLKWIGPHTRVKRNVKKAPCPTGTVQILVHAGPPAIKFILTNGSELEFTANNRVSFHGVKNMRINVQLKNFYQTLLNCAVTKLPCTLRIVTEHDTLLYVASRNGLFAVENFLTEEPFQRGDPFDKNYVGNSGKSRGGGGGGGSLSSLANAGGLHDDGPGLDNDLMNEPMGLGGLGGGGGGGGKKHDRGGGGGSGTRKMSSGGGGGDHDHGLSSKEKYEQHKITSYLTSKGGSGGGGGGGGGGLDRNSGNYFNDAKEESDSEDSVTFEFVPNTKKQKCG
UniProt P16794: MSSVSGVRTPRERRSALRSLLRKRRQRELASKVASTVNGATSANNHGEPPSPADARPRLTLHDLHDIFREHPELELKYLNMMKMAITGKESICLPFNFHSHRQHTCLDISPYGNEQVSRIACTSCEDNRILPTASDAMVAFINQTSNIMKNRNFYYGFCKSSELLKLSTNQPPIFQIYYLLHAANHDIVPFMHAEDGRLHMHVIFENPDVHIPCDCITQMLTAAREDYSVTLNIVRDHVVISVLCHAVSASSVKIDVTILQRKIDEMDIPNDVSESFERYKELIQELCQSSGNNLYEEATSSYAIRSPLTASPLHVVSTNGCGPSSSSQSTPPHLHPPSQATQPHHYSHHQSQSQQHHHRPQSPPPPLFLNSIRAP

Molecule | binding [1] | binding [2]
pUL50 (from UniProt P16791 1-397) | no binding | binds
pUL97 (from UniProt P16788 1-707) | no binding | binds
pUL44 (from UniProt P16790 1-433) | no binding | binds
pUL53 (from UniProt P16794 1-376) | no binding | binds
pUL84 (protein, UniProt P16727 1-586) MPRVDPNLRNRARRPRARRGGGGGVGSNSSRHSGKCRRQRRALSAPPLTFLATTTTTTMMGVASTDDDSLLLKTPDELDKYSGSPQTILTLTDKHDIRQPRVHRGTYHLIQLHLDLRPEELRDPFQILLSTPLQLGEANDESQTAPATLQEEETAASHEPEKKKEKQEKKEEDEDDRNDDRERGILCVVSNEDSDVRPAFSLFPARPGCHILRSVIDQQLTRMAIVRLSLNLFALRIITPLLKRLPLRRKAAHHTALHDCLALHLPELTFEPTLDINNVTENAASVADTAESTDADLTPTLTVRVRHALCWHRVEGGISGPRGLTSRISARLSETTAKTLGPSVFGRLELDPNESPPDLTLSSLTLYQDGILRFNVTCDRTEAPADPVAFRLRLRRETVRRPFFSDAPLPYFVPPRSGAADEGLEVRVPYELTLKNSHTLRIYRRFYGPYLGVFVPHNRQGLKMPVTVWLPRSWLELTVLVSDENGATFPRDALLGRLYFISSKHTLNRGCLSAMTHQVKSTLHSRSTSHSPSQQQLSVLGASIALEDLLPMRLASPETEPQDCKLTENTTEKTSPVTLAMVCGDL | binds | binds
